Measured values taken from patent US20110064740A1.
Substitutions are numbered along the chain they refer to. No constants are given. Whether binding was seen depends on the method and setting. Some binding calls cover weakened binding; strength is not graded here.

Chains of the proteins cited; added tags and fusions are not shown. Residues count along the entry.
UniProt P05067, residues 672-711: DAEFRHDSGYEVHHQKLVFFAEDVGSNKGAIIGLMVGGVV

B1: Humanised 2E7 variant H1L1 (antibody, human IgG1, kappa, V domains shown)
VH: EVQLVESGGGLVQPGGSLRLSCAASGFTFSDNGMAWVRQAPGKGLEWVSFISNLAYSIDYADTVTGRFTISRDNAKNSLYLQMNSLRAEDTAVYYCVSGTWFAYWGQGTLVTVSS
VL: DIVMTQSPLSLPVTPGEPASISCRVSQSLLHSNGYTYLHWYLQKPGQSPQLLIYKVSNRFSGVPDRFSGSGSGTDFTLKISRVEAEDVGVYYCSQTRHVPYTFGGGTKVEIKR
B2: Humanised 2E7 variant H3L1 (antibody, human IgG1, kappa, V domains shown)
VH: B1 VH with V48I
VL: B1 VL
B3: Humanised 2E7 variant H2L1 (antibody, human IgG1, kappa, V domains shown)
VH: B1 VH with A24V
VL: B1 VL

These binders were tested against human Aβ peptide (length not stated) (human) (UniProt P05067) (assay: ELISA, supernatants of transiently transfected CHOK1 cells).

binding, binds:
B1
B2
B3
